From PubChem BioAssay AID262 (DTP/NCI, 2004)
The list is a part of this screen's results and no random one: it gathers tests that were run many times, whatever their T/C, doses with no T/C, and many T/C values between a quarter and a half above the control. Further doses and runs are listed elsewhere. T/C is the treated group as % of the vehicle group. Schedules are NCI's codes, taken here to give the interval after Q, in days (D) or hours (H), and the number of doses after X. Some T/C values carry the count of animals alive at the toxicity check (mostly the fifth day); where none is given, no animal had died by that day. Some T/C values are negative: the treated tumours shrank. Some entries hold several experiments; the values are given in rising order. Some doses have a count of surviving animals in place of a T/C: the source files T/C as zero there, which appears to mark a toxic dose or a test without result, not a measured value. Counts of survivors are from the toxicity check (mostly the fifth day) where no day follows; animals may have died later.

Tested on: LX-1 lung xenograft sc, nude mice, tumor weight
Assay: NCI In Vivo Anticancer Drug Screen. Data for tumor model Human Lung LX-1 Xenograft (subcutaneous) in NU/NU Swiss (nude) mice
Conditions: T/C endpoint: optimum tumor weight change, higher T/C = larger tumour
Description: The antitumor activity of compounds was measured in mice bearing transplantable tumors. Survival or tumor size were measured and the results are expressed as the measurement made in the treated group (T) divided by the measurement made in the vehicle treated control group (C). The tumor model used in this assay is Human Lung LX-1 Xenograft (subcutaneous) in NU/NU Swiss (nude) mice

[1] = dose: 200.0 mg/kg/injection, schedule: Q04DX003 (ip), vehicle: saline
[2] = dose: 400.0 mg/kg/injection, schedule: Q04DX003 (ip), vehicle: saline
[3] = dose: 800.0 mg/kg/injection, schedule: Q04DX003 (ip), vehicle: saline
[4] = dose: 800.0 mg/kg/injection, schedule: Q04DX003 (ip), vehicle: suspension in saline
[5] = dose: 100.0 mg/kg/injection, schedule: Q04DX003 (ip), vehicle: Klucel (hydroxypropylcellulose) (HPC), evaluated on day 33
[6] = dose: 100.0 mg/kg/injection, schedule: Q04DX003 (ip), vehicle: Klucel (hydroxypropylcellulose) (HPC)
[7] = dose: 200.0 mg/kg/injection, schedule: Q04DX003 (ip), vehicle: Klucel (hydroxypropylcellulose) (HPC)

O=NN(CCCl)C(=O)NC1CCC(=O)NC1=O (stereo unspecified)
survivor count (dose: 10.0 mg/kg/injection, schedule: Q04DX003 (ip), vehicle: saline with Tween-80): 2 of 5 on day 35
survivor count (dose: 20.0 mg/kg/injection, schedule: Q04DX003 (ip), vehicle: saline with Tween-80): 0 of 5 on day 35

CN(CO)c1nc(N(C)CO)nc(N(C)CO)n1
T/C (dose: 25.0 mg/kg/injection, schedule: Q04DX005 (ip), vehicle: saline, evaluated on day 56): 149 % of control
T/C (dose: 100.0 mg/kg/injection, schedule: Q04DX005 (ip), vehicle: saline, evaluated on day 56): 149 % of control [4 of 5 alive]
T/C (dose: 200.0 mg/kg/injection, schedule: Q04DX005 (ip), vehicle: saline, evaluated on day 56): 130 % of control

O=C(NO)c1ccccc1
survivor count [1]: 0 of 5 on day 35
survivor count [2]: 0 of 5 on day 35
survivor count [3]: 0 of 5 on day 35
survivor count [4]: 2 of 5 on day 35
survivor count (dose: 1600.0 mg/kg/injection, schedule: Q04DX003 (ip), vehicle: suspension in saline): 3 of 5 on day 35

O=Cc1ccc(O)c(O)c1
T/C (dose: 100.0 mg/kg/injection, schedule: Q04DX003 (ip), vehicle: saline with Tween-80, evaluated on day 33): 129 % of control

CN(C)N=Nc1cccc(C(N)=O)c1
T/C (dose: 50.0 mg/kg/injection, schedule: Q04DX003 (ip), vehicle: Klucel (hydroxypropylcellulose) (HPC), evaluated on day 32): 2 % of control [4 of 5 alive on day 34]
T/C (dose: 50.0 mg/kg/injection, schedule: Q04DX003 (ip), vehicle: Klucel (hydroxypropylcellulose) (HPC), evaluated on day 33): -28 % of control
T/C (dose: 50.0 mg/kg/injection, schedule: Q04DX003 (ip), vehicle: Klucel (hydroxypropylcellulose) (HPC), evaluated on day 34): 7 % of control
survivor count (dose: 50.0 mg/kg/injection, schedule: Q04DX003 (ip), vehicle: Klucel (hydroxypropylcellulose) (HPC)): 3 of 5 on day 35
T/C (dose: 100.0 mg/kg/injection, schedule: Q04DX003 (ip), vehicle: Klucel (hydroxypropylcellulose) (HPC), evaluated on day 32): -39 % of control [4 of 5 alive on day 34]
T/C [5]: -59 % of control
survivor count [6]: 2 of 5 on day 35 and 2 of 5 on day 36
survivor count [7]: 0 of 5 on day 35, 1 of 5 on day 34, 1 of 5 on day 35
survivor count (dose: 400.0 mg/kg/injection, schedule: Q04DX003 (ip), vehicle: Klucel (hydroxypropylcellulose) (HPC)): 0 of 5 on day 34

N[C@H](C(=O)O)[C@@H]1CC(Cl)=NO1
survivor count [1]: 3 of 5 on day 36
survivor count [3]: 3 of 5 on day 36
survivor count [4]: 0 of 5 on day 35

Nc1cc2[nH]cnc2c(=O)[nH]1
survivor count [2]: 3 of 5 on day 35

O=C/C(Cl)=C(/Cl)C(=O)O
survivor count (dose: 25.0 mg/kg/injection, schedule: Q04DX003 (ip), vehicle: saline with Tween-80): 1 of 5 on day 36

CN(C)/N=N/c1nc[nH]c1C(N)=O
T/C [5]: 13 % of control
T/C (dose: 100.0 mg/kg/injection, schedule: Q04DX003 (ip), vehicle: Klucel (hydroxypropylcellulose) (HPC), evaluated on day 34): -2 and 58 % of control
T/C (dose: 100.0 mg/kg/injection, schedule: Q04DX003 (ip), vehicle: Klucel (hydroxypropylcellulose) (HPC), evaluated on day 36): 23 % of control
T/C (dose: 200.0 mg/kg/injection, schedule: Q04DX003 (ip), vehicle: Klucel (hydroxypropylcellulose) (HPC), evaluated on day 33): -15 % of control
T/C (dose: 200.0 mg/kg/injection, schedule: Q04DX003 (ip), vehicle: Klucel (hydroxypropylcellulose) (HPC), evaluated on day 34): -53 [5 of 6 alive on day 36] and 49 % of control
T/C (dose: 400.0 mg/kg/injection, schedule: Q04DX003 (ip), vehicle: Klucel (hydroxypropylcellulose) (HPC), evaluated on day 33): -47 % of control
T/C (dose: 400.0 mg/kg/injection, schedule: Q04DX003 (ip), vehicle: Klucel (hydroxypropylcellulose) (HPC), evaluated on day 34): -45 and 34 % of control
T/C (dose: 400.0 mg/kg/injection, schedule: Q04DX003 (ip), vehicle: Klucel (hydroxypropylcellulose) (HPC), evaluated on day 36): 32 % of control
T/C (dose: 800.0 mg/kg/injection, schedule: Q04DX003 (ip), vehicle: Klucel (hydroxypropylcellulose) (HPC), evaluated on day 33): -30 % of control
T/C (dose: 800.0 mg/kg/injection, schedule: Q04DX003 (ip), vehicle: Klucel (hydroxypropylcellulose) (HPC), evaluated on day 34): 22 % of control
T/C (dose: 800.0 mg/kg/injection, schedule: Q04DX003 (ip), vehicle: Klucel (hydroxypropylcellulose) (HPC), evaluated on day 36): 1 % of control
survivor count (dose: 800.0 mg/kg/injection, schedule: Q04DX003 (ip), vehicle: Klucel (hydroxypropylcellulose) (HPC)): 0 of 6 on day 36 and 2 of 5 on day 34
survivor count (dose: 1600.0 mg/kg/injection, schedule: Q04DX003 (ip), vehicle: Klucel (hydroxypropylcellulose) (HPC)): 2 of 5 on day 34
survivor count (dose: 3200.0 mg/kg/injection, schedule: Q04DX003 (ip), vehicle: Klucel (hydroxypropylcellulose) (HPC)): 0 of 5 on day 34

NC(=O)c1ccc[n+](Cc2c(Cl)cccc2Cl)c1
survivor count (dose: 96.0 mg/kg/injection, schedule: Q04DX003 (ip), vehicle: saline): 3 of 5 on day 36
survivor count (dose: 192.0 mg/kg/injection, schedule: Q04DX003 (ip), vehicle: saline): 0 of 5 on day 36

CC(CN1CC(=O)NC(=O)C1)N1CC(=O)NC(=O)C1 (stereo unspecified)
survivor count (dose: 100.0 mg/kg/injection, schedule: Q04DX003 (ip), vehicle: suspension in saline): 3 of 5 on day 36
survivor count (dose: 400.0 mg/kg/injection, schedule: Q04DX003 (ip), vehicle: suspension in saline): 2 of 5 on day 34 and 2 of 5 on day 36
survivor count [4]: 0 of 5 on day 36

CC(C)CCCCCCCCCCCCC(=O)NCC(=O)NC1C(O)C(O)C(Nc2ncnc3nc[nH]c23)OC1C(O)CO (stereo unspecified)
survivor count (dose: 12.0 mg/kg/injection, schedule: Q04DX003 (ip), vehicle: suspension in saline): 2 of 5 on day 36
survivor count (dose: 24.0 mg/kg/injection, schedule: Q04DX003 (ip), vehicle: suspension in saline): 0 of 5 on day 36
survivor count (dose: 48.0 mg/kg/injection, schedule: Q04DX003 (ip), vehicle: suspension in saline): 0 of 5 on day 36

COc1cc([C@@H]2c3cc4c(c(O)c3C[C@H]3COC(=O)[C@@H]32)OCO4)cc(OC)c1O
survivor count (dose: 12.5 mg/kg/injection, schedule: Q04DX003 (ip), vehicle: saline): 3 of 5 on day 36
survivor count (dose: 25.0 mg/kg/injection, schedule: Q04DX003 (ip), vehicle: saline): 0 of 5 on day 36

COc1cccc2c1C(=O)c1c(O)c3c(c(O)c1C2=O)C[C@@](O)(C(C)=O)C[C@@H]3OC1CC(N)C(O)C(C)O1 (stereo partly specified)
survivor count (dose: 2.0 mg/kg/injection, schedule: Q04DX003 (ip), vehicle: saline): 3 of 5 on day 36

O=C1c2c(O)ccc(O)c2C(=O)c2c(NCCNCCO)ccc(NCCNCCO)c21
survivor count (dose: 2.5 mg/kg/injection, schedule: Q04DX003 (ip), vehicle: water): 0 of 5 on day 36 and 2 of 5 on day 36

CC(=O)OCC(=O)[C@@]12OC(C)(C)O[C@@H]1C[C@H]1[C@@H]3CC(C=O)=C4C=C(OCCCl)CC[C@]4(C)[C@@]3(F)[C@@H](O)C[C@@]12C
survivor count [6]: 3 of 5 on day 34
survivor count [7]: 1 of 5 on day 34

Cc1c(N)nc(C(CC(N)=O)NCC(N)C(N)=O)nc1C(=O)NC(C(=O)NC(C)C(O)CC(=O)NC(C(=O)NC(OC1OC(C)C(N)C(O)C1O)C(O)c1nc(-c2nc(C(=O)NCCCC(N)CC(=O)NCCCNCCCCN)cs2)cs1)C(C)O)C(OC1OC(CO)C(O)C(O)C1OC1OC(CO)C(O)C(OC(N)=O)C1O)c1cnc[nH]1 (stereo unspecified)
survivor count (dose: 16.0 mg/kg/injection, schedule: Q04DX003 (ip), vehicle: saline): 3 of 5 on day 36
survivor count (dose: 32.0 mg/kg/injection, schedule: Q04DX003 (ip), vehicle: saline): 0 of 5 on day 36

ClCC[N+]12CC[N+](CCCl)(CC1)C2
survivor count (dose: 800.0 mg/kg/injection, schedule: Q04DX003 (ip), vehicle: saline with Tween-80): 1 of 5 on day 35
